Data published in publication PMC12040169 (PLOS Biology, 2025).
This is one part of the list.

The compounds below were run on T1, CTL2-GFP (C. trachomatis L2/434/Bu, GFP-expressing). Settings: bulk GFP, single well; 28.5 h, 10 µM; inhibitor.
T1 construct: L2/434/Bu, GFP-expressing
Design: species or system HeLa; Intracellular C. trachomatis growth in HeLa cells, bulk GFP fluorescence relative to DMSO
With CCOc1ccc(C(=O)Nc2ccc(S(=O)(=O)N3CCN(C)CC3)cc2)cc1 [CBK269959] the “% of control remaining” value was 137.442%.
OC(CN1CCC(O)(Cn2cnc3ccccc32)CC1)c1ccc(-c2ccccc2)cc1 (centres unmarked) [CBK286437] was tested, and the “% of control remaining” value was 109.25%.
With O=C(CNC(=O)OCc1ccncc1)NCC(CCCN1CCC(c2ccccc2)CC1)(c1ccccc1)c1ccccc1 [CBK024060A] the “% of control remaining” value was 143.102%.
O=C(Nc1ccccc1C(F)(F)F)c1ccc(-n2cnnn2)cc1 [CBK300521] was tested, and the “% of control remaining” value was 163.88%.
In the case of C/C(N)=C(/C#N)C(NC(=O)C1CCCCC1)(C(F)(F)F)C(F)(F)F [CBK267902], the “% of control remaining” value is reported as 108.932%.
With Nc1ccc2ccc(-c3ccsc3)nc2n1 [CBK067624] the “% of control remaining” value was 125.84%.
In the case of O=C1N[C@H]2CCCN(C(=O)c3cc(=O)[nH]c(=O)[nH]3)[C@H]2C/C=C/CCOc2ccccc21 [CBK292065], the “% of control remaining” value is reported as 96.2121%.
In the case of O=C(c1coc(COc2cccc(F)c2)n1)N1CC(n2cccn2)C1 [CBK306842], the “% of control remaining” value is reported as 142.927%.
In the case of Cc1csc(C(C)NC(=O)c2cccnc2NCc2ccc3c(c2)OCO3)n1 (centres unmarked) [CBK153425], the “% of control remaining” value is reported as 76.5848%.
For Cc1nn(CCNC(=O)C(c2ccc(F)cc2)N(C)C)c(C)c1C (centres unmarked) [CBK282009], the “% of control remaining” value was 106.674%.
Nc1ncc(-c2ccc(C(=O)N3CCOCC3)cc2)nc1C(=O)NCc1ccc(O)cc1 [CBK149161] was tested, and the “% of control remaining” value was 121.796%.
In the case of CN(Cc1nc(-c2cccnc2)no1)S(=O)(=O)c1ccc2ccccc2c1 [CBK267385], the “% of control remaining” value is reported as 99.6622%.
In the case of Nc1ncc(-c2cccc(-c3ccccc3)c2)nc1NCc1cccnc1 [CBK063491], the “% of control remaining” value is reported as 212.274%.
For CCOc1cc(C2CC(=O)NC(SCC(=O)Nc3cccc(C(F)(F)F)c3)=C2C#N)ccc1O (centres unmarked) [CBK265778], the “% of control remaining” value was 83.2143%.
For C[C@H]1CN2CCCC2CN1Cc1cccc(F)c1F (some centres unmarked) [CBK285454], the “% of control remaining” value was 80.8085%.
COc1ccc(Nc2nc(N)nc(CSC(=S)N3CCN(C)CC3)n2)cc1 [CBK265232] was tested, and the “% of control remaining” value was 126.556%.
In the case of COCC1CN(C(=O)Nc2nnc(Cc3ccc(C)cc3)s2)CCO1 (centres unmarked) [CBK306278], the “% of control remaining” value is reported as 158.679%.
For O=C(c1ccccc1)N1CCc2[nH]nc(-c3ccccc3)c2C1 [CBK287904], the “% of control remaining” value was 118.457%.
Cc1nc(COc2ccc(Cl)cc2)sc1C(=O)N1CCCCC1C(=O)O (centres unmarked) [CBK304233] was tested, and the “% of control remaining” value was 103.482%.
With COc1ccccc1CC(=O)Nc1ccc(-c2nnc(-c3ccc(C)cc3)o2)cc1 [CBK268329] the “% of control remaining” value was 100.224%.
With COc1ccccc1NC(=O)Cn1c(=O)oc2cc(Cl)ccc21 [CBK269344] the “% of control remaining” value was 111.923%.
CC(Cc1c[nH]c2ccccc12)NC(=N)NC(=N)N (centres unmarked) [CBK268251C] was tested, and the “% of control remaining” value was 73.9099%.
For CN1CCOC(CNCc2ccc(OCC(N)=O)cc2)C1 (centres unmarked) [CBK304830], the “% of control remaining” value was 82.531%.
With CC(C)(C)c1ccc(O)c(NC(=S)NC(=O)c2cccc(OCc3ccccc3)c2)c1 [CBK269018] the “% of control remaining” value was 82.775%.
Cc1ccc(CNC(=O)Cc2ccc(-c3ccc(CN4CCC(C)CC4)cc3)nc2)cc1F [CBK158402] was tested, and the “% of control remaining” value was 104.892%.
With O=C(O)CNC(=O)CNC(=O)C12CC3CC(CC(C3)C1)C2 [CBK287083] the “% of control remaining” value was 129.213%.
In the case of O=C1NCC2(CCCN(Cc3ccc(F)cc3)C2)Oc2ccccc21 (centres unmarked) [CBK284857], the “% of control remaining” value is reported as 99.258%.
CCOc1ccc2nc(SCCN3CCOCC3)sc2c1 [CBK005888] was tested, and the “% of control remaining” value was 125.094%.
For S=C(Nc1ccccc1)N(Cc1ccccc1)Cc1ccncc1 [CBK267991], the “% of control remaining” value was 90.7177%.
For COc1ccc(CCNC(=O)N2CCN(c3ccccc3)CC2)cc1 [CBK155199], the “% of control remaining” value was 128.191%.
Cc1nc2ccccn2c1CN1CCC(Oc2ccc(F)cc2)CC1 [CBK281803] was tested, and the “% of control remaining” value was 101.519%.
In the case of CC1=NN(c2nc(-c3ccc(Br)cc3)cs2)C(=O)C1/N=N/c1ccccc1C(=O)O (centres unmarked) [CBK262440], the “% of control remaining” value is reported as 133.575%.
With CCN(CC)C(=O)c1sccc1NS(=O)(=O)Cc1ccccc1[N+](=O)[O-] [CBK050396] the “% of control remaining” value was 111.91%.
CCOc1ccc(N2C(=O)CC(Nc3cc(C(=O)O)ccc3C)C2=O)cc1 (centres unmarked) [CBK296651] was tested, and the “% of control remaining” value was 123.903%.
For Nc1ncc2ncn([C@@H]3O[C@H](CO)[C@H](O)C3O)c2n1 (some centres unmarked) [CBK201318], the “% of control remaining” value was 127.586%.
With O=C(O)c1cc(-n2c(S)nnc2-c2ccncc2)ccc1Cl [CBK268989] the “% of control remaining” value was 136.611%.
For CC(C)(C)c1ccnc(N[C@H]2CO[C@H]3[C@@H]2OC[C@@H]3NCc2ccccn2)n1 [CBK289524], the “% of control remaining” value was 115.345%.
For NC(=O)CCCN1CC[C@H]2c3c(cccc3C(N)=O)CC[C@H]21 [CBK007883], the “% of control remaining” value was 174.963%.
In the case of COc1ccc(C(=O)NCCCSc2nc(C(C)(C)C)cc(C(F)(F)F)n2)cc1 [CBK268690], the “% of control remaining” value is reported as 136.43%.
With Cc1ccc(NC(=O)CC(=O)NCCN2CCOCC2)cc1 [CBK262179] the “% of control remaining” value was 112.859%.
For Cc1c(NC(=O)CN2CCCC(C)C2)ccc2nsnc12 (centres unmarked) [CBK269248], the “% of control remaining” value was 117.225%.
With c1ccc(N2CCN(c3nc4cc5c(cc4s3)OCCO5)CC2)cc1 [CBK287499] the “% of control remaining” value was 146.103%.
c1ccc(CCN2CCCN(c3ccnc(OCCN4CCOCC4)n3)CC2)nc1 [CBK083813] was tested, and the “% of control remaining” value was 104.002%.
For CCSc1nc2ccccc2n1CC(=O)O [CBK262059], the “% of control remaining” value was 100%.
CCNC(=O)c1ccccc1NC(=O)C(C)Oc1ccccc1 (centres unmarked) [CBK269933] was tested, and the “% of control remaining” value was 122.829%.
CCN1CC(C(=O)N2CC(O)CC2c2cc(F)ccc2F)CC1=O (centres unmarked) [CBK304031] was tested, and the “% of control remaining” value was 139.35%.
In the case of Cn1cccc1C(=O)N1CCC(OCc2cnc(-c3ccc(S(C)(=O)=O)cc3)cn2)CC1 [CBK172007], the “% of control remaining” value is reported as 106.387%.
In the case of CN(C)CCN(CCc1ccccc1)Cc1ccncc1 [CBK283145], the “% of control remaining” value is reported as 119.7%.
With Cc1cc2ccccc2n2c(=O)n(CCNC(=O)C(C)C)nc12 [CBK282876] the “% of control remaining” value was 113.571%.
In the case of Cc1ccc(N2CCN(CC(O)COc3ccc(C(=O)c4ccc(Cl)cc4)cc3)CC2)c(C)c1 (centres unmarked) [CBK266117], the “% of control remaining” value is reported as 161.814%.
In the case of Cc1cnc2c(c1)cc(C1CCOCC1)n2CC(=O)N(C)C [CBK284754], the “% of control remaining” value is reported as 116.486%.
In the case of O=S(=O)(Nc1ccc(N2CCNCC2)c2ccccc12)c1ccc(Cl)s1 [CBK003146C], the “% of control remaining” value is reported as 46.7574%.
With Cc1cc(Cl)ccc1NC(=O)COCC(=O)O [CBK057723] the “% of control remaining” value was 137.82%.
In the case of CC(N)C1CCCCN1S(=O)(=O)c1ccc(OCc2ncnn2C)cc1 (centres unmarked) [CBK304272C], the “% of control remaining” value is reported as 139.447%.
With CCCc1ccc(S(=O)(=O)Nc2cccc(C(=O)N3CCN(C)CC3)c2)cc1 [CBK039034] the “% of control remaining” value was 105.44%.
In the case of CSc1ccc(CNC(=O)c2sc3nc(C)nc(N4CCCC4)c3c2C)cc1 [CBK294432], the “% of control remaining” value is reported as 155.771%.
With Cc1ccc(Cc2c(C)[nH]c3[nH]n(-c4ccccc4)c(=O)c3c2=O)cc1 [CBK270273] the “% of control remaining” value was 148.328%.
With Cc1cc(C)nc(N/C(=N/C(=O)CCN2C(=O)c3ccccc3C2=O)Nc2cccc(Cl)c2)n1 [CBK266507] the “% of control remaining” value was 190.529%.
For O=C(Cn1c(-c2cccs2)cc2cccnc21)NCc1ccncc1 [CBK282456], the “% of control remaining” value was 143.481%.
Cc1ccc(C(=O)O/C(=C/c2nc3ccccc3n2Cc2cccc3ccccc23)c2ccc(C)cc2)cc1 [CBK262485] was tested, and the “% of control remaining” value was 107.148%.
In the case of Cc1cc(=O)oc2ccc(OCC(=O)Nc3ccc(S(=O)(=O)O)cc3)cc12 [CBK263185N], the “% of control remaining” value is reported as 116.876%.
With O=C(Cc1ccccc1F)NCCn1nc(-c2ccco2)ccc1=O [CBK283705] the “% of control remaining” value was 134.742%.
For COC(=O)c1c(NC(=S)NC(=O)c2c(Br)c(C)nn2C)sc2c1CCCCCC2 [CBK267486], the “% of control remaining” value was 159.514%.
For CCn1nc(C)c(C(C)NC(=O)C(C)n2cc(Cl)cn2)c1C (centres unmarked) [CBK281550], the “% of control remaining” value was 121.117%.
With CN(C)c1ccc(C(=O)N2C3CCC2CC(O)(c2ccco2)C3)cc1 (centres unmarked) [CBK284117] the “% of control remaining” value was 129.055%.
For O=C(Nc1ccccn1)c1c(O)n(Cc2ccccc2)c2ccccc2c1=O [CBK291213], the “% of control remaining” value was 102.008%.
For Cc1cc(C(=O)CSc2nnc(C(C)C)n2Cc2ccco2)c(C)n1C [CBK295178], the “% of control remaining” value was 161.528%.
For COC(=O)c1ccc(-c2cnc(OCC3CCN(C(=O)OC(C)(C)C)CC3)nc2)nc1 [CBK170130], the “% of control remaining” value was 121.695%.
In the case of C=CCNC(=O)C1CCN(c2nc3ccccc3n2C)CC1 [CBK283955], the “% of control remaining” value is reported as 109.885%.
With COc1cccc(-c2cccc(NS(=O)(=O)c3ccc4c(c3)CCC(=O)N4)c2)c1 [CBK286372] the “% of control remaining” value was 76.3572%.
In the case of CC1(C)Cc2ccccc2C(NCC(=O)O)=N1 [CBK262562], the “% of control remaining” value is reported as 100%.
O=C(c1cc(C2CC2)on1)N1CCn2cc(C(F)(F)F)nc2C1 [CBK282425] was tested, and the “% of control remaining” value was 117.493%.
With COc1ccc(-c2nc(NC(=O)c3cnccn3)cnc2-c2ccc(F)cc2)cc1 [CBK037150] the “% of control remaining” value was 145.789%.
With CCN1CC(C(=O)NCc2ccc(CN3CCCCC3)cc2)CC1=O (centres unmarked) [CBK281400] the “% of control remaining” value was 119.069%.
O=C(CN1C(=O)N2CCN=C2c2ccccc21)N1CCCCC1 [CBK283865] was tested, and the “% of control remaining” value was 99.1103%.
Cc1cc(N2CCOCC2)nc2ccc(NC(=O)c3ccncc3)cc12 [CBK288587] was tested, and the “% of control remaining” value was 104.929%.
Cc1ccc(/C=N/NC(=O)CN(c2ccccc2)S(=O)(=O)c2ccccc2)c(C)c1C [CBK262098] was tested, and the “% of control remaining” value was 120.359%.
